Our source for the binding values is PMC4702109, “Osmotic stress induces the phosphorylation of WNK4 Ser575 via the p38MAPK-MK pathway” (Scientific Reports, 2016).

The chains behind the UniProt entries cited, without tags or fusion partners. Where a name states a change or a piece, a line headed by the entry shows the natural chain unless it says otherwise. A line that says so, or that is headed by a name, gives the form on record, which may keep a tag or linker.
UniProt Q6ZN16: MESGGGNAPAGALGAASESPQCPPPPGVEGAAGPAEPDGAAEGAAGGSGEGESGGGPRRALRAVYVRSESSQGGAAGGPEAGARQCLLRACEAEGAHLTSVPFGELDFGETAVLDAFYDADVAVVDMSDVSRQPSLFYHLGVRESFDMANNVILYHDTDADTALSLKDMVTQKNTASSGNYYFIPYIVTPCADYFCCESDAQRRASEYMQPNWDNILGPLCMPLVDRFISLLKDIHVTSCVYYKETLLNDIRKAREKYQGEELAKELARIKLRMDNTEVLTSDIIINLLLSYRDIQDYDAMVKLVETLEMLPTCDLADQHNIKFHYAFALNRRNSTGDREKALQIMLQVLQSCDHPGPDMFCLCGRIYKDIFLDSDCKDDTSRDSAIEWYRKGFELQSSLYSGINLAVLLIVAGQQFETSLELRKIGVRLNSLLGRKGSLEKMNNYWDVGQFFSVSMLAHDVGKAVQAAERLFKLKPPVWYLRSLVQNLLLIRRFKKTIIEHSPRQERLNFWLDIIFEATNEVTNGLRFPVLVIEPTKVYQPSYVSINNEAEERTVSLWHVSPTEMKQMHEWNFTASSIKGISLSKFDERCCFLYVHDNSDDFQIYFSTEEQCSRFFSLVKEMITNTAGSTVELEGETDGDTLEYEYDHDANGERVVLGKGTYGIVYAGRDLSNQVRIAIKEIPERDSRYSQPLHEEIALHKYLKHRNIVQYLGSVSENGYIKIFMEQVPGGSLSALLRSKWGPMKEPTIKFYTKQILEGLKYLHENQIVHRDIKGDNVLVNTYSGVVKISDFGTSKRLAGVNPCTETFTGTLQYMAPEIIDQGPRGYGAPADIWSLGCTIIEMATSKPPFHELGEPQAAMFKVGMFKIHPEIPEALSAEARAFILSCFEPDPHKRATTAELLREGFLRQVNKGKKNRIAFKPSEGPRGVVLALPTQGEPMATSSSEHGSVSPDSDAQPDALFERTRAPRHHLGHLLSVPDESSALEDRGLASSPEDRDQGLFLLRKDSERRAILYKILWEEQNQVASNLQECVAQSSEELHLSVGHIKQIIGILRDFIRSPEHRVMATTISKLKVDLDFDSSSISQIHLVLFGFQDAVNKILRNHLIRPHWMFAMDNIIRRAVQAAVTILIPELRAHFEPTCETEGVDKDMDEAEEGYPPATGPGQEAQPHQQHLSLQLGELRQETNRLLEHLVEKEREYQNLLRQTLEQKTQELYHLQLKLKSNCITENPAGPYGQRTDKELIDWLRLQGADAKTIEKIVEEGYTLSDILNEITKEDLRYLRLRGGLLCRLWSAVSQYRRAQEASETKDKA
human ASK3-KM fused to the GAL4 DNA-binding domain (Q6ZN16, form named): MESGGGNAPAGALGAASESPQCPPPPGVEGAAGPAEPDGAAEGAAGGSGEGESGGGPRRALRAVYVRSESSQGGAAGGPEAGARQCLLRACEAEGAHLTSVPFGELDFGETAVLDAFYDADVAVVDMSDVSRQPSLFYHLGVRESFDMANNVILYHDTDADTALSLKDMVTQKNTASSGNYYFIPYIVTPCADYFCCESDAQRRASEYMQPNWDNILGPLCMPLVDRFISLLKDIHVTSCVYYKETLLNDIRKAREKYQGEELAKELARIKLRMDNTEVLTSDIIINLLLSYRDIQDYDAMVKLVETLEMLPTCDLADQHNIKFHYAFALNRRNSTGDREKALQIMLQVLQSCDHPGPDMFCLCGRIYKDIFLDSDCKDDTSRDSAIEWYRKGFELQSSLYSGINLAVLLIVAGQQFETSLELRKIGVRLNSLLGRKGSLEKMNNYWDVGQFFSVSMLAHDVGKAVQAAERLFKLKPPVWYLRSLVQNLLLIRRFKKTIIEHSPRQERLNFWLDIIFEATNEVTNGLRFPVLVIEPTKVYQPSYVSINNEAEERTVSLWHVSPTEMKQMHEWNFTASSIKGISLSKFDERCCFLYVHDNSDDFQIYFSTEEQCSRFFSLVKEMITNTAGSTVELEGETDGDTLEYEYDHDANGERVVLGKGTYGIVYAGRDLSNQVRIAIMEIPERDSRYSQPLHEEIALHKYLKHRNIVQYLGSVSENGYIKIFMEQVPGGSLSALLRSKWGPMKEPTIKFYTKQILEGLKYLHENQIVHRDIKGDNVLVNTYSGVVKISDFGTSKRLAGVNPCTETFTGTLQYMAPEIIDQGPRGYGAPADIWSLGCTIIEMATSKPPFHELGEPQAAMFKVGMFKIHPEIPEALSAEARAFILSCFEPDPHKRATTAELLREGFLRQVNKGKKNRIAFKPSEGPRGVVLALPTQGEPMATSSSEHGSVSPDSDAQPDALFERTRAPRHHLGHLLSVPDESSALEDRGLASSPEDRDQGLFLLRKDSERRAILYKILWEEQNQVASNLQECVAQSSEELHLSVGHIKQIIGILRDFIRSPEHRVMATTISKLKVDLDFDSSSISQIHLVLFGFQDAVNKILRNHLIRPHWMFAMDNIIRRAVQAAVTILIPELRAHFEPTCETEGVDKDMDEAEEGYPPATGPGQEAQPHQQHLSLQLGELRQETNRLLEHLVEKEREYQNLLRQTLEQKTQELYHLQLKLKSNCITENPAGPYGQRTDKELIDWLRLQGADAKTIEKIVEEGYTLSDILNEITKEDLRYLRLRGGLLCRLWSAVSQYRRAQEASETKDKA
UniProt P49138: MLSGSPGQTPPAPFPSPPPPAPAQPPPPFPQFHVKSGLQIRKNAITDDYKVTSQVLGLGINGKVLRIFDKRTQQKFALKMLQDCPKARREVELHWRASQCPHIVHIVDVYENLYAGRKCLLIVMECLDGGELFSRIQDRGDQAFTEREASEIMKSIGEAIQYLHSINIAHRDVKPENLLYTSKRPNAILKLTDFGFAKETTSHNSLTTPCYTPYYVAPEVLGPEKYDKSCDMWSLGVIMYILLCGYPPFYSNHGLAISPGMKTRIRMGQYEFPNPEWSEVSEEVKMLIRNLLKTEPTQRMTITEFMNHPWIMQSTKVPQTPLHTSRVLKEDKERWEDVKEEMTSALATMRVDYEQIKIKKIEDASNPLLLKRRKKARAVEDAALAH
UniProt Q3UMW7: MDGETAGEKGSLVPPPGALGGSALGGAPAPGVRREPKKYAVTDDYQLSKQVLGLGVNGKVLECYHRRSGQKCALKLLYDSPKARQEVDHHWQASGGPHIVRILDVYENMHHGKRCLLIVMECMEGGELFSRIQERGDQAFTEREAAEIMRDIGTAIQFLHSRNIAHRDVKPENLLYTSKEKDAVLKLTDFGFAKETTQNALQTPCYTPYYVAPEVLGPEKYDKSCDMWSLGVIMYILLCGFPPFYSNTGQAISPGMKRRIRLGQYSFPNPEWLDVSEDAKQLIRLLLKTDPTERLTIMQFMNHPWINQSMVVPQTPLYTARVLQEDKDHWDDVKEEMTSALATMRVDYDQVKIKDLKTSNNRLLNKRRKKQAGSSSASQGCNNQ
UniProt O54992: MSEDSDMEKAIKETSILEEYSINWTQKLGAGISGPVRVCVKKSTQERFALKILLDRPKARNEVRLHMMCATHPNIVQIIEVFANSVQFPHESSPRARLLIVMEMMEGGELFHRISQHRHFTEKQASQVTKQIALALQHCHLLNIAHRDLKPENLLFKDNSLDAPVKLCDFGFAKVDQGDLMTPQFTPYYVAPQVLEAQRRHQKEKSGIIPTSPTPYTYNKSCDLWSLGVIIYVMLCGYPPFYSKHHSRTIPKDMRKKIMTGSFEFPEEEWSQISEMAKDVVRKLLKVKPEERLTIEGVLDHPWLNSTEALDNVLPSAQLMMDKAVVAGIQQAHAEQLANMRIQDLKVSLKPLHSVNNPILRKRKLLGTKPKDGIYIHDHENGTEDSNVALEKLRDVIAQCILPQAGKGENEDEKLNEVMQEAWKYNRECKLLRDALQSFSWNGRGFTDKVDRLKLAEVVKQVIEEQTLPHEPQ

No constants are given. Whether binding was seen depends on the method and setting. For some of these results: Binding seen in cells or lysates may run through a third protein. Some binding calls cover weakened binding; strength is not graded here. For some of these results: Where a sequence is shown, tags or fusion partners need not be part of it.

Assay [1] addresses FLAG-tagged human ASK3 kinase-inactive mutant (human) (UniProt Q6ZN16). As to the kind of experiment: co-IP; HEK293A cells co-transfected, lysed 48 h after transfection; anti-FLAG antibody beads, immunoblot for co-precipitated WNK4; osmotic stress did not significantly affect the interaction (Supplementary Fig. S1).
The target in assay [2] is FLAG-tagged human ASK3 wild type (human) (UniProt Q6ZN16). The description is as above.
The target of assay [3] is FLAG-tagged mouse MK2 (mouse) (UniProt P49138). As to the kind of experiment: co-IP; mIMCD3 cells co-transfected, lysed 24 h after transfection; FLAG-tagged MK kinases immunoprecipitated with anti-FLAG antibody beads.
The target in assay [4] is FLAG-tagged mouse MK3 (mouse) (UniProt Q3UMW7). Described as above.
In assay [5] the target is FLAG-tagged mouse MK5 (mouse) (UniProt O54992). The description is as above.
The target of assay [6] is human ASK3-KM fused to the GAL4 DNA-binding domain (human) (UniProt Q6ZN16). Briefly: two-hybrid; GAL4 system; bait ASK3-K681M in pGBKT7 (AH109) mated with human kidney cDNA library prey in pACT2 (Y187); growth on selection medium (QDO: without adenine, His, Leu, Trp).
For assay [7], the target named is T1, WNK4 (557–580)-E562K peptide (human) (UniProt Q96J92).
T1 sequence (peptide): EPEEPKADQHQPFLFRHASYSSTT
As to the kind of experiment: pull-down; FLAG-tagged synthetic WNK4 (557–580) peptides (1 μg) held on anti-FLAG antibody beads; GST-hKLHL3 (290–587) incubated 6 hours, washed with IP lysis buffer; immunoblot; two amounts of GST-KLHL3 (3-fold apart); both purified. On the technique in general: In western blotting, separated proteins are transferred to a membrane and probed.

For the molecule “HA-tagged human WNK4 (in HEK293A cells) (from UniProt Q96J92 1-1243)”, the binding entry in assay [1] and in assay [2] was “binds” throughout.

Take “HA-tagged human WNK4 (in mIMCD3 cells) (from UniProt Q96J92 1-1243)”: the binding entry in assay [3], in assay [4] and in assay [5] was “binds” throughout.

“human WNK4 (850–1007) fused to the GAL4 transcriptional activation domain (from UniProt Q96J92 850-1007) (domain or fragment)”: the binding result in assay [6] is recorded as “binds”.

B1: GST-hKLHL3 (290–587) (domain or fragment, UniProt Q9UH77 290-587)
chain: RTKPRTPVSLPKVMIVVGGQAPKAIRSVECYDFEEDRWDQIAELPSRRCRAGVVFMAGHVYAVGGFNGSLRVRTVDVYDGVKDQWTSIASMQERRSTLGAAVLNDLLYAVGGFDGSTGLASVEAYSYKTNEWFFVAPMNTRRSSVGVGVVEGKLYAVGGYDGASRQCLSTVEQYNPATNEWIYVADMSTRRSGAGVGVLSGQLYATGGHDGPLVRKSVEVYDPGTNTWKQVADMNMCRRNAGVCAVNGLLYVVGGDDGSCNLASVEYYNPVTDKWTLLPTNMSTGRSYAGVAVIHKSL
On to B1, for which the binding entry in assay [7] is listed as “no binding”.
